Measurements taken from article PMC10163288.
The other results are listed elsewhere or left out.

B1: il2ra_site2_3nfp_normal_mot_HHH_b2_08209_000000146_0001_1_18_H_._HHH_b1_00160_0001_0000200018_0000001_0 (protein)
chain: SSSSSTEEERERVEELLEEAKEITDPEERKELLAEATQIAYEANDFELFALVADVVFELLSSSSS
B2: il2ra_site1_3nfp_normal_mot_HHH_b1_05523_000000054_0001_1_19_H_._HHH_b1_08043_af2_0001_0000300027_0000001_0_af2pred_0001_af2pred (protein)
chain: SSSSNLRERIEELIRQAHELFKRGDEEEARKLLEEALELAEELGSRLARRFIEVALKIAHSSSSS
B3: il2ra_site1_1z92_normal_mot_01209686ea234b34325f918445e6eade_0001_af2_000000154_0001_18_33_H_._76fe7993c3ad9ffb2b2ee76f24d0ea53_0001_0001_0000100010_0000001_0_a … (protein)
chain: SLEEKLEEIKKLGVPPELVELFRKLFRAAEESGIPPEDVLRVLEDAAERDNDPELKEVIELVAET
B4: il2ra_site1_3nfp_normal_mot_HHH_b1_05523_000000027_0001_1_19_H_._HHH_b2_04834_af2_0001_0000200023_0000001_0 (protein)
chain: SSSSNEAEELFRLLRLAYELLKRGDEEEAEKVLEEAIKLAEERNNESAKRSLEKALEQIENSSSS
B5: il2ra_site1_2b5i_normal_mot_HHH_b1_06833_000000207_0001_1_19_H_._7f70b108f67073d46d85893f1d3c3336_0001_af2_0001_0000100003_0000001_0_af2pred_dldesign_0_af2pred (protein)
chain: SLEDIAEAAEEADDKDLLDLAVRAYYLAQKNPSLKERLLELVTRLARGEIAPEEAKRRLSELALE
B6: il2ra_site2_2erj_sap_24_mot_HHH_b1_05499_000000145_0001_23_39_H_._53fd09b27b213caabe775bb65887bf95_0001_0001_0000500019_0000001_0_0001_af2pred_0001_af2pred (protein)
chain: DDAELAELMVKIAAERHNVPSVEVEVHNGELHVTVEGDDEAARRLAERARFAARALGLPYEVTVE
B7: il2ra_site1_3nfp_sap_9_mot_HHH_b1_07334_af2_000000146_0001_22_37_H_._HHH_b1_08366_af2_0001_0000400010_0000001_0_0001_af2pred_0001_af2pred_1 (protein)
chain: SSSSDEEALRRIEELLKEAAKIEDPEEAREVAEEALELAEEAGNERLARKLRRDLEAIERSSSSS
B8: il2ra_site2_2erj_normal_mot_64bd02d26d05ce9f1a62b616cea0b888_0001_af2_000000029_0001_36_49_H_._HHH_b1_08099_0001_0000400004_0000001_0 (protein)
chain: SSSSSDTQELLRLVYELLTEFGLSIEQAEVLAEVAAELLQRGVSEEEIEEILERVAEELSSSSSS
B9: il2ra_site2_3nfp_sap_25_mot_32bc48042d8ba3d1c0734e77886dd373_0001_1_000000143_0001_36_50_H_._HHH_b1_00305_af2_0001_0000100004_0000001_0_0001 (protein)
chain: SSSSSDEREEEVEELLEEAKKIEDEERRRELLARAAQIAFENNNPELFFKVAEVLFKLEQSSSSS
B10: il2ra_site1_1z92_normal_mot_c9a8daa1dfea21d1414aecde54be4f54_0001_1_af2_000000024_0001_32_46_H_._0e4f66a3c4b070984708d3e1d5382b02_0001_1_af2_0001_0000100008_000 … (protein)
chain: NVAERLFEQAEELGVPPRAVVLALVSAVHAEDPRLREEAEELLERVRRGELPPEEAVRLLAELLE
B11: il2ra_site1_1z92_normal_mot_HHH_b1_00226_000000119_0001_43_56_H_._HHH_b1_02233_af2_0001_0000200029_0000001_0 (protein)
chain: SSSSTEASELLWEILEAAEQGDHEKAERLLEEAKELAEELGDEALKRQLEIFERLLEDLKSSSSS
B12: il2ra_site2_3nfp_sap_12_mot_HHH_b1_00159_af2_000000185_0001_1_18_H_._HHH_b1_03255_af2_0001_0000200007_0000001_0_0001 (protein)
chain: SNELAELANEAAQIALRLAKSPDPEAVEVALEIYRLLKEALETSDEEEAKEILEEAVELARRYSS
B13: il2ra_site1_3nfp_normal_mot_HHH_b1_06312_000000199_0001_1_18_H_._HHH_b1_02974_af2_0001_0000100005_0000001_0_af2pred_0001_af2pred (protein)
chain: SSSDLEEIEELIRKAHKLFKNGNLEEAEEVLREAEEIAKEANSEVTEKFIQALLRILERQKSSSS
B14: il2ra_site1_2b5i_normal_mot_f5ff40796168375b462bec8614a1db4a_0001_1_000000138_0001_53_65_H_._HHH_b2_05754_af2_0001_0000200008_0000001_0_af2pred_dldesign_0_af2pr … (protein)
chain: SSSSSKEDKREQVEELLEKARKEKDKNLARKLLLLARRIAKKINDEELIARIDEELAKLGSSSSS
B15: il2ra_site1_3nfp_normal_mot_dc5ea9c2c6cb1649bd85fc05aca2b482_0001_af2_000000257_0001_18_32_H_._HHH_b2_06596_af2_0001_0000300003_0000001_0_af2pred_0001_af2pred (protein)
chain: SSSSDEVEERVRELLEEAEKAAEEGDPRLVAELLREALKLASENQNPELWKLVLRVIRELASSSS
B16: il2ra_site1_3nfp_normal_mot_ems_3hC_921_af2_000000143_0001_22_40_H_._HHH_b2_03092_0001_0000100006_0000001_0 (protein)
chain: SSSSSEEVREAQELSREVLKLIREGDREEAEELLKELERLAREANDPIAEKLVEQLERLLGSSSS
B17: il2ra_site1_1z92_normal_mot_HHH_b1_07944_000000047_0001_39_52_H_._HHH_b1_07427_0001_0000200021_0000001_0_af2pred_0001_af2pred (protein)
chain: SSSSSEIQEEIDRLWKEASHIPDREEVRKLIEEALELAEEAGDENVFRDLRRFLERLKRGSSSSS
B18: il2ra_site2_2erj_sap_21_mot_HHH_b1_01555_af2_000000123_0001_22_39_H_._HHH_b1_05014_af2_0001_0000100013_0000001_1_0001 (protein)
chain: SSSSDEIEELLEKAKELLEKGNPEEAEEVLRKAAHAAFENNDFEAFREIAELLREVAQLEASSSS
B19: il2ra_site1_3nfp_sap_15_mot_HHH_b2_07409_000000012_0001_1_20_H_._16934e337390fad51c35c10e6cd388ee_0001_1_0001_0000200030_0000001_0_0001 (protein)
chain: SSSSDVEEEVREILEQIEELLENGNPEEAAKLAEELYRLIAEAKDQEAADLLYEFLHRIISSSSS

target: il2ra, P01589; assay: yeast display titration

Apparent Kd, inactive:
B1 no binding seen
B2 no binding seen
B3 no binding seen
B4 no binding seen
B5 no binding seen
B6 no binding seen
B7 no binding seen
B8 no binding seen
B9 no binding seen
B10 no binding seen
B11 no binding seen
B12 no binding seen
B13 no binding seen
B14 no binding seen
B15 no binding seen
B16 no binding seen
B17 no binding seen
B18 no binding seen
B19 no binding seen

Looked up one by one from the list above:
Apparent Kd, inactive:
B6 no binding seen
B12 no binding seen
